Test results published in US20030154500.
Protein sequences can lack the tags named with them.

Test system: T1, SB transposase N123 (N-terminal DNA-binding domain, residues 1-123) (synthetic (salmonid consensus))
T1 sequence: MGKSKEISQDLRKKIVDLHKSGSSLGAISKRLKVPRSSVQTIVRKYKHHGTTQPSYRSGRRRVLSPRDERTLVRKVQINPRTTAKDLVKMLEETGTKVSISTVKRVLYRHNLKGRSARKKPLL
Assay: EMSA
Conditions: two complexes, two N123 per IR; 20 mM HEPES pH 7.5, 150 mM NaCl, poly(dI)(dC), on ice; competed by unlabelled IR; purified recombinant protein; protein details: C-terminal His tag (pET21a); label: 32P

## AGTTGAAGTCGGAAGTTTACATACACTTAAGTTGGAGTCATTAAAACTCGTTTTTCAACTACACCACAAATTTCTTGTTAACAAACAATAGTTTTGGCAAGTCAGTTAGGACATCTACTTTGTGCATGACACAAGTCATTTTTCCAACAATTGTTTACAGACAGATTATTTCACTTATAATTCACTGTATCACAATTCCAGTGGGTCAGAAGTTTACATACACTAA (double strand)
  binding result: binds
